Consider one molecule from publication PMC3369926.

The chains behind the UniProt entries cited, without tags or fusion partners. Residues count along the entry.
UniProt Q99836, residues 148-296: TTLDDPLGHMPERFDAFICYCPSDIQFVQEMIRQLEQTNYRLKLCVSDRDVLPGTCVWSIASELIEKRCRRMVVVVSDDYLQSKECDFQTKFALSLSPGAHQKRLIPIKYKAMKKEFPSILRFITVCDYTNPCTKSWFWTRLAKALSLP

These are yes or no findings as the source states them, for the method shown.

The target of this assay is GST-MyD88-TIR (wild type, amino acid residues 148-296) (UniProt Q99836). Description: pull-down; GST fusion proteins held on Glutathione Sepharose 4B, three hours at 4°C; four washes with 20 mM potassium phosphate (pH 6.0), 100 mM KCl, 0.1 mM EDTA, 10 mM DTT, 0.5% Triton X100; SDS-PAGE with Coomassie staining; in triplicate; both purified.

B1: TLR1-TIR (amino acid residues 625-786) (domain or fragment, UniProt Q15399 625-786)
chain: NIPLEELQRNLQFHAFISYSGHDSFWVKNELLPNLEKEGMQICLHERNFVPGKSIVENIITCIEKSYKSIFVLSPNFVQSEWCHYELYFAHHNLFHEGSNSLILILLEPIPQYSIPSSYHKLKSLMARRTYLEWPKEKSKRGLFWANLRAAINIKLTEQAKK
As to B1, the binding entry was “no binding”.
